Our source for the IC50 values is patent US20020044973A1, “MICROPARTICLES AND THEIR USE IN CANCER TREATMENT” (priority 1997, published 2002).

Values after ≈ are worked out from the molar mass of the structure shown.

The test system of this experiment is MCF7 cell line. The experiment is described as follows: Cytotoxicity in doxorubicin-sensitive human breast cancer cell line (cell counting, Coulter Counter). In kind it is cell-based. The note with it: MCF7 parent cell line, 24 hours incubation, further 72 hours before counting.

Consider `COc1cccc2c1C(=O)c1c(O)c3c(c(O)c1C2=O)C[C@@](O)(C(=O)CO)C[C@@H]3O[C@H]1C[C@H](N)[C@H](O)[C@H](C)O1` [doxorubicin], for which the IC50 amounted to 0.031 µg/mL (≈ 0.057 µM).
